In PMC3718762, “Differential Disruption of EWS-FLI1 Binding by DNA-Binding Agents” (PLoS ONE, 2013):
Structures can show the parent of a compound that is named as a salt.

Biological target: EWS-FLI1
Test: AlphaScreen proximity assay, binding of recombinant EWS-FLI1 to cognate DNA oligo
Details: read-out: IC50 EWS-FLI1, disruption of recombinant EWS-FLI1 binding to DNA

IC50: 5.36 µM
SMILES: CCCCc1oc2ccccc2c1C(=O)c1cc(I)c(OCCN(CC)CC)c(I)c1 [Amiodarone HCl]
